Test results from article PMC9525679, “Inositol hexakisphosphate is required for Integrator function” (Nature Communications, 2022).
These are yes or no findings as the source states them, for the method shown. Some results given as binding are weak or reduced against the parent protein; the word gives no strength. For part of these data: Where a sequence is shown, tags or fusion partners need not be part of it. Each block holds one molecule with its values, some of them ahead of it.

Sequences of proteins named here, by UniProt entry; tags and fusion partners are left off.
UniProt Q9VAH9: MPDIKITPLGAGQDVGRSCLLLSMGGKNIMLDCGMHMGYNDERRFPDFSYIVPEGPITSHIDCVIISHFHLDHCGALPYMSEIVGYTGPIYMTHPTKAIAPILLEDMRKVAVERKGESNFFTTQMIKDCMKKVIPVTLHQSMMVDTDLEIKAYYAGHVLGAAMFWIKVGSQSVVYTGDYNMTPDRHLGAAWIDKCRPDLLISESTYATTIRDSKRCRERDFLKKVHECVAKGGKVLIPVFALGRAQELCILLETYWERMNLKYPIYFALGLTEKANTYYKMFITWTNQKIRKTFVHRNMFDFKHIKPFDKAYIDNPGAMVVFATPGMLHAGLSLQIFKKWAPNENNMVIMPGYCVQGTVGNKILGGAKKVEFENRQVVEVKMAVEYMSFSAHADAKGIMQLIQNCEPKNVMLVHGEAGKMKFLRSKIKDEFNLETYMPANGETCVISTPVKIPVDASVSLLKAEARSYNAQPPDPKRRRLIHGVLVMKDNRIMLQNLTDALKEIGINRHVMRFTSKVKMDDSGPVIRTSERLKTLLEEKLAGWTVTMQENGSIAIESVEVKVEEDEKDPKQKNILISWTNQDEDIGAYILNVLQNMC

What was measured:
[1] = biological target: T1, Drosophila IntS4 (N-terminal 6xHis-tagged), subunit of the Integrator cleavage module (Drosophila (D. melanogaster)) (UniProt Q9W3E1); test: SEC; gel filtration (Hiload 16/60 Superdex 200) of wild-type and K462E mutant Drosophila ICM co-expressed in insect cells, after nickel affinity; SDS gel of the complex; both purified
T1 sequence: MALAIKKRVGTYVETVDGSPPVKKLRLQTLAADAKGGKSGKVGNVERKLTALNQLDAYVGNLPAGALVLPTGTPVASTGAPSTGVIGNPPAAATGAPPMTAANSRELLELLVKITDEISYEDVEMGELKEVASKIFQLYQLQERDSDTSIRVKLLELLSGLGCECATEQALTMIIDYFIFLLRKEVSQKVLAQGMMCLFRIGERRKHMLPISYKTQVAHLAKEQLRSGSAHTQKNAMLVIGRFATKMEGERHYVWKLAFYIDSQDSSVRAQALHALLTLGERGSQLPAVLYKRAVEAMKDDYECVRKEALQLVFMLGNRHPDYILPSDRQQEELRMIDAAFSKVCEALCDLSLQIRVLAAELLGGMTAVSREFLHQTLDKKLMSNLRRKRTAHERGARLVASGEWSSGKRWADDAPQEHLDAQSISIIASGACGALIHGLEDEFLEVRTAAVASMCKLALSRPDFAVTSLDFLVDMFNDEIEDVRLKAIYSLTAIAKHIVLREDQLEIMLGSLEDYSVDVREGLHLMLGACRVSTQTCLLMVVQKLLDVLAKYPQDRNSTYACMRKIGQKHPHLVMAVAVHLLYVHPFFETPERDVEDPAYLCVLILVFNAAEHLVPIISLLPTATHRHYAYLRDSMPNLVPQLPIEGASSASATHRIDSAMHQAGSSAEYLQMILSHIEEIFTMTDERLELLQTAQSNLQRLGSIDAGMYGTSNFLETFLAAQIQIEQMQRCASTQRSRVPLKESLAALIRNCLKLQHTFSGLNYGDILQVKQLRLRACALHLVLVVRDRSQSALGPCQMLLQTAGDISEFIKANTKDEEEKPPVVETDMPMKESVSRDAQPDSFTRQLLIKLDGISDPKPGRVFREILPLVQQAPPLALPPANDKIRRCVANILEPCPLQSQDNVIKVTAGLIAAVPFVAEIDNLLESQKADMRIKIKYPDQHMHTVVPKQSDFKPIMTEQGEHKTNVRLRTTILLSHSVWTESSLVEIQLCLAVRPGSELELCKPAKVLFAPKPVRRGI

[2] = biological target: T2, Drosophila IntS9, subunit of the Integrator cleavage module (Drosophila (D. melanogaster)) (UniProt Q95TS5); test: as above
T2 sequence: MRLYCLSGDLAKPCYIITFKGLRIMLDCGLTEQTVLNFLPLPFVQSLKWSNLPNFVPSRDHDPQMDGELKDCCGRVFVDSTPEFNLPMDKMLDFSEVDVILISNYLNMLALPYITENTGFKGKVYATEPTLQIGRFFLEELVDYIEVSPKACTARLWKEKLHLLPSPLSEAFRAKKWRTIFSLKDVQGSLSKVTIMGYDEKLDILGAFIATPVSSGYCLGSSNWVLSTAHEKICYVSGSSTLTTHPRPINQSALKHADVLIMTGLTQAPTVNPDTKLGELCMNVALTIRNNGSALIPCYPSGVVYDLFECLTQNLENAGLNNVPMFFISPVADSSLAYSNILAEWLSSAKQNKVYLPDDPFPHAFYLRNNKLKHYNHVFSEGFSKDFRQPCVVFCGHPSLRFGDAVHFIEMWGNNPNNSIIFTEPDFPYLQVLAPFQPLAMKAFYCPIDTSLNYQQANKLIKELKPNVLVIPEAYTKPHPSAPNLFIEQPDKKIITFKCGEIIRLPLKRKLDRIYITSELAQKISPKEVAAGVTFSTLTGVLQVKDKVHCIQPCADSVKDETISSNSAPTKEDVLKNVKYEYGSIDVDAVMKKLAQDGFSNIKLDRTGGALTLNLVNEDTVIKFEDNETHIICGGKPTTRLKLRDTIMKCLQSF

[3] = biological target: T1, Drosophila IntS4 (N-terminal 6xHis-tagged), subunit of the Integrator cleavage module (Drosophila (D. melanogaster)); test: cryo-EM structure; Drosophila IntS4-IntS9-IntS11 complex co-expressed in Tni insect cells and purified (nickel affinity, Superdex 200); 0.1 mg/ml on a gold grid with graphene oxide support film; 2.74 Å; IP6 bound; both purified
[4] = biological target: T2, Drosophila IntS9, subunit of the Integrator cleavage module (Drosophila (D. melanogaster)); test: as above

binding [1]: binds
binding [2]: binds
binding [3]: binds
binding [4]: binds
Molecule: Drosophila IntS11, subunit of the Integrator cleavage module (from UniProt Q9VAH9 1-597) (enzyme)

binding [1]: binds
binding [3]: binds
B1: Drosophila IntS9, subunit of the Integrator cleavage module (protein, UniProt Q95TS5 1-654)
chain: T2 sequence
